Laboratory results from patent US20140011853A1, “SUBSTITUTED 3-(BIPHENYL-3-YL)-8,8-DIFLUORO-4-HYDROXY-1-AZASPIRO[4.5]DEC-3-EN-2-ONES FOR THERAPY” (BAYER INTELLECTUAL PROPERTY GMBH, priority 2011, published 2014).
For some assays here: At least one compound was matched to its structure with a doubt left. Some of these results come from one statement about several compounds together. Some compounds share one range, which may span the group rather than tell each member.

Experiments:
Alopecurus myosuroides = assay: Herbicidal post-emergence action; format: in vivo; details: 80 g/ha, about 3 weeks
Echinocloa crus-galli = assay: Herbicidal post-emergence action; format: in vivo; details: 80 g/ha, about 3 weeks
Lolium multiflorum = assay: Herbicidal post-emergence action; format: in vivo; details: 80 g/ha, about 3 weeks
Setaria viridis = assay: Herbicidal post-emergence action; format: in vivo; details: 80 g/ha, about 3 weeks
[1] = Membrane affinity logMA (MA-Transil); format: physicochemical; details: buffer pH 7.4

In the case of `CCc1cc(C)cc(C)c1C1=C(O)C2(CCC(F)(F)CC2)NC1=O` [Example I-1-a-11], the herbicidal activity (Alopecurus myosuroides) is reported as 90-100%, the herbicidal activity (Echinocloa crus-galli) is reported as 90-100% and the herbicidal activity (Lolium multiflorum) is reported as 90-100%. The herbicidal activity (Setaria viridis) was 90-100%.
With `Cc1ccc(-c2ccc(Cl)c(F)c2)cc1C1=C(O)C2(CCC(F)(F)CC2)NC1=O` [Example 1-1, 3-(4′-Chloro-3′-fluoro-4-methylbiphenyl-3-yl)-8,8-difluoro-4-hydroxy-1-azaspiro[4.5]dec-3-en-2-one] the logMA [1] was 1.87 (1.7-2, n = 3)^.
